Measured values reported in patent US8853239B2, “Compounds, pharmaceutical compositions and uses thereof” (Boehringer Ingelheim International GmbH, priority 2011, dated 2014).
pEC50: −log10 of the molar value.

Target: T1, human GPR119 (Homo sapiens, UniProt Q8TDV5)
T1 construct: expression vector for human GPR119 cDNA (Acc. No. NP_848566); expressed in transfected cells
T1 sequence (Q8TDV5 1-335): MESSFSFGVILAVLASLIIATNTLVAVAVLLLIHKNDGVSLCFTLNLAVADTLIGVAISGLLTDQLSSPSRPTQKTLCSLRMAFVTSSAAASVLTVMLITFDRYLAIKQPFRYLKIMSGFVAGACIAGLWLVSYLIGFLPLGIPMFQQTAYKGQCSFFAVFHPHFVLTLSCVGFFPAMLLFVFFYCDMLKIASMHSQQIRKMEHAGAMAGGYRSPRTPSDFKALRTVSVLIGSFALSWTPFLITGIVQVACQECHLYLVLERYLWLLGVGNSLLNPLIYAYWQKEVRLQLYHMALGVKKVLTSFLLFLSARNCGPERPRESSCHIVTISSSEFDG
Test: AlphaScreen cAMP assay in MIN6 cells stably transfected with human GPR119
Type: cell-based
Details: Min-6/hGPR119 cells, stimulation of intracellular cAMP, 45 minutes incubation at room temperature
Method: The compounds of formula I according to the invention modulate the activity of the G-protein-coupled receptor GPR119. The effect of the compounds on the activation of GPR119 and on the stimulation of intracellular cAMP concentration is determined using the AlphaScreen cAMP Assay Kit (Cat. No. #6760625R) made by PerkinElmer.
MIN6 cells [Miyazaki J et al. Endocrinology. 1990 July; 127(1):126-32] are stably transfected with an expression vector for human GPR119 cDNA (Acc. No. NP_848566). Min-6/hGPR119 cells are cultured in DMEM, 10% FBS, 50 μM β-mercaptoethanol, 0.3 mg/mL Geniticin, 2 mM GlutaMAX at 37° C. 5% CO2. For the assay, the cells are seeded in Optiplates (white, 384-well, 160W-barcoded, TC, sterile with lid, Cat. No. #6007688 (Perkin Elmer); 10000 cells/well; 50 μl). The plates covered with lids are then incubated for 24 hours at 37° C./5% CO2. After the medium is aspirated from the wells completely, 10 μl of the test compound are added, the compounds are diluted using stimulating buffer (140 mM NaCl, 3.6 mM KCl, 0.5 mM NaH2PO4, 0.5 mM MgSO4, 1.5 mM CaCl2, 10 mM Hepes, 5 mM NaHCO3; pH 7.4. 0.5 mM IBMX and 0.1% BSA, the final DMSO concentration is 1%). After 45 minutes incubation at room temperature (approx. 20° C.), the cAMP concentrations are determined using the AlphaScreen cAMP Assay Kit (Cat. No. #6760625R from PerkinElmer).

pEC50 | Structure (SMILES)
7.60 | CS(=O)(=O)c1ccc(-c2cc3c(cn2)O[C@@H](C2CCN(CC4(C(F)(F)F)CC4)CC2)C3)cc1 [Example 17, (R)-5-(4-Methanesulfonyl-phenyl)-2-{1-[(1-trifluoromethyl-cyclopropyl)methyl]-piperidin-4-yl}-2,3-dihydro-furo[2,3-c]pyridine]
7.60 | CS(=O)(=O)c1ccc(-c2cc3c(cn2)OC(C2CCN(CC4(C(F)(F)F)CC4)CC2)C3)cc1 (centres unmarked) [Example 2, 5-(4-Methanesulfonyl-phenyl)-2-{1-[(1-trifluoromethyl-cyclopropyl)methyl]-piperidin-4-yl}-2,3-dihydro-furo[2,3-c]pyridine]
